Results published in patent publication US20230368862A1, “BINDING SITE IN TYPE 2 RYANODINE RECEPTOR” (The Trustees of Columbia University in the City of New York, priority 2021, published 2023).
Results are given in words; binding and its absence hold for the method and conditions named. Some binding calls cover weakened binding; strength is not graded here.

Sequences of proteins named here, by UniProt entry; tags and fusion partners are left off. A change or cut given only in a name is not applied to a line headed by its entry.
UniProt P68106: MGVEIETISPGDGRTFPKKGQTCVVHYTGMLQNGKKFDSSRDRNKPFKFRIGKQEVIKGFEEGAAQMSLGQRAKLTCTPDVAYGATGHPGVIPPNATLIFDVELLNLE

What was measured:
[1] = biological target: Recombinant human RyR2-R2474S, detergent-solubilised from HEK293 cells, before PKA treatment (human) (UniProt Q92736); experiment: affinity purification: RyR2 with GST-calstabin-2 held on a GSTrap HP column and eluted with glutathione
[2] = biological target: Recombinant human RyR2 (wild type), detergent-solubilised from HEK293 cells, before PKA or phosphatase treatment (human) (UniProt Q92736); experiment: as above
[3] = biological target: PKA phosphorylated human RyR2-R2474S (CPVT mutant, recombinant, from HEK293 cells) (human) (UniProt Q92736); experiment: cryo-EM model of the RyR2 complex (initial model built on primed PKA RyR2-R2474S)

Row | binding [1] | binding [2] | binding [3] | Substance
1 | binds | binds |  | Recombinant human GST-calstabin-2 (from UniProt P68106 1-108)
2 |  |  | binds | calstabin-2 (PPIase FKBP1B, FKBP12.6), human (from UniProt P68106 1-108)
